The values that follow come from BindingDB's records for doi:10.1021/cb500828m (Vanderbilt University, 2015).

The target of this experiment is T1, Phospholipase D (Pseudomonas aeruginosa, UniProt Q9HYC2).
T1 sequence (Q9HYC2 whole entry): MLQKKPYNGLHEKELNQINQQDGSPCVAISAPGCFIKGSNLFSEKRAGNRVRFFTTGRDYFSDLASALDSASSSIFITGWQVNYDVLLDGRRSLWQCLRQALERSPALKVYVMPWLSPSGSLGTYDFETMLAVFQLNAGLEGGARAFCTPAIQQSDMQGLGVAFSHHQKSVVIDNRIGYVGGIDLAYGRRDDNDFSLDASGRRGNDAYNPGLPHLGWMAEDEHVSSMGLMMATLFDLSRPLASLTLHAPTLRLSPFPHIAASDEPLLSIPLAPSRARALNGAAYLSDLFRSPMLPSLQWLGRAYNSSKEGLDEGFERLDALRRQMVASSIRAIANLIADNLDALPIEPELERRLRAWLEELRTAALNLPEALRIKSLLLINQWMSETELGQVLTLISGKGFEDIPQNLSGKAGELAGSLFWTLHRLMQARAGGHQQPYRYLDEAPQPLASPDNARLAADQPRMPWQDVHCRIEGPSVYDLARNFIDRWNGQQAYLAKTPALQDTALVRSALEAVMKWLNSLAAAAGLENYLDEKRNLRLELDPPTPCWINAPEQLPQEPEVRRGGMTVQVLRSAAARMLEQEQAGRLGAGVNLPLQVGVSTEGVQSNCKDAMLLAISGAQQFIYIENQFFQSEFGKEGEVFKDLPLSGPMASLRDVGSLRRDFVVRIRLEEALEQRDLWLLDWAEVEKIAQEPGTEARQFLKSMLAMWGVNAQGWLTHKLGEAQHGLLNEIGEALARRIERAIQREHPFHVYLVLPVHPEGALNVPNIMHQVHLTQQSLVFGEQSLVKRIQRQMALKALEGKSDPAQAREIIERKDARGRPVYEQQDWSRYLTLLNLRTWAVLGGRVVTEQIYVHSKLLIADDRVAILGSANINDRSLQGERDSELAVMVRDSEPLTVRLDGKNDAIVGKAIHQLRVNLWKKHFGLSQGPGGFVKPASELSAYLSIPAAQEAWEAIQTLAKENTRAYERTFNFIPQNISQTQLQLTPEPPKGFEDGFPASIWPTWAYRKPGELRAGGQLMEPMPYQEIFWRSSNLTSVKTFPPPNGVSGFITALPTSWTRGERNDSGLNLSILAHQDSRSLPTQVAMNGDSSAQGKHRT
Conditions: pH 7.5.

For orientation: IC50 means the point on the concentration scale where inhibition reaches its midpoint. Lower therefore signals greater potency in that assay. With `CC/C(=C(\c1ccccc1)c1ccc(OCCN(C)C)cc1)c1ccccc1` [(2-{4-[(1Z)-1,2-diphenylbut-1-en-1-yl]phenoxy}ethyl)dimethylamine], the midpoint of inhibition, the IC50, lay at 15 µM.
